# Source: paper PMC5416842, “The ribosome biogenesis factor yUtp23/hUTP23 coordinates key interactions in the yeast and human pre-40S particle and hUTP23 contains an essential PIN domain” (Nucleic Acids Research, 2017)
# Numbering of substitutions follows the chain as printed. For part of these data: No signal at the amounts used counts as a negative. Protein sequences can lack the tags named with them. A weaker result is weaker than the reference pair of the same experiment. For part of these data: The exact form of at least one protein or probe is not confirmed.
# Tests used:
# [1] = target: T1, GST-yUtp23 WT (Saccharomyces cerevisiae) (UniProt Q12339); assay: EMSA; details: EMSA: 10 mM Tris/HCl pH 7.6, 75 mM NaCl, 2 mM DTT, 100 ng/ul BSA, 0.8 U/ul RNasin, 4.5% glycerol, 0.05% Tween20, 500 ng/ul E. coli tRNA, 10 min 30 C then 10 min on ice, recombinant protein, residues 1-254, protein details: N-terminal GST (pGEX-6P1), probe letters rebuilt from the primers and the genome
# T1 sequence (looked up): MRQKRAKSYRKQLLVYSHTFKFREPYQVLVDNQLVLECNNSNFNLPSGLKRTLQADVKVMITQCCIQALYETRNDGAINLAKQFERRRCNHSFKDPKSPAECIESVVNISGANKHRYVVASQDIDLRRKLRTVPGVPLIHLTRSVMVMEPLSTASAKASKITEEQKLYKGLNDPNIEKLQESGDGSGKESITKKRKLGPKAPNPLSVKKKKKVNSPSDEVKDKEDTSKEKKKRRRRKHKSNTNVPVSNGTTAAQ
# [2] = target: T2, GST-yUtp23 C102A (Saccharomyces cerevisiae) (UniProt Q12339); assay: EMSA; details: 250 and 2500 nM, unresolved, likely non-specific complexes at high concentration; EMSA: 10 mM Tris/HCl pH 7.6, 75 mM NaCl, 2 mM DTT, 100 ng/ul BSA, 0.8 U/ul RNasin, 4.5% glycerol, 0.05% Tween20, 500 ng/ul E. coli tRNA; 10 min 30 C then 10 min on ice; recombinant protein; residues 1-254; protein details: N-terminal GST (pGEX-6P1); label: 32P-UTP body; probe letters rebuilt from the primers and the genome
# T2 sequence (looked up): T1 sequence (looked up) with C102A
sequence,measurement,setting,value
"GGCGUAUUGCUCGAAUAUAUUAGCAUGGAAUAAUAGAAUAGGACGUUUGGUUCUAUUUUGUUGGUUUCUAGGACCAUCGUAAUGAUUAAUAGGGACGGUCGGGGGCAUCAGUAUUCAAUUGUCAGAGGUGAAAUUCUUGGAUUUAUUGAAGACUAACUACUGCGAAAGCAUUUGCCAAGGACGUUUUCA [18S rRNA ES6 fragment (nt 775-963, RNA A)]",binding result,"[1]; 5000 nM protein, very low efficiency, label: 32P-UTP body (unlabelled as competitor)",binds more weakly
GGAACCAUAGUCUCGUGCUAGUUCGGUACUAUACAGGGAAGGGAAGUCACUCGCAUACGUGUGUGUGCAUUUCUUGCUAUUGCUGCUUAGCUUCUCUAAAACACUGGGCUAGCGUUUUUCAACGCUCGAGAGGCAGAGUCUCAAGGAGCCUCCAAUGGGCCUCACGUAUUCAUCUAGAUGGCGCUUCGGACAACGGCAUCACAUAAGAGAUGCAGCUCCUGACUUCUCCUCUGAUCUUCGUGAUCAGAGUUUUGAGUCGUCAGACUACGAGCAGUUUCUCUUAGUCGUUGCAUCGGGUGCUGUUGCCUUAACGAUGUGUAUAUGGGGUUCGGGGGCUGUUGCCAUGAUAUAUAUGGAUGAGACAGAAGUGGCCCCGUUGACGAGUUUAACUUAGAUUAACGCAGUAUAUUCCUAAACACUAUGAAAUGACCCUAGUUGGUCCAUGAUCAUUUGGGUAAAACCAUACUGCAGACAUCU [snR30 FL deltaIH],binding result,"[1]; 1300 nM protein, severely reduced, label: 32P-UTP body",binds more weakly
GGAACCAUAGUCUCGUGCUAGUUCGGUACUAUACAGGGAAGGGAAGUCACUCGCAUACGUGUGUGUGCAUUUCUUGCUAUUGCUGCUUAGCUUCUCUAAAACACUGGGCUAGCGUUUUUCAACGCUCGAGAGGCAGAGUCUCAAGGAGCCUCCAAUGGGCCUCACGUAUUCAUCUAGAUGGCGCUUCGGACAACGGCAUCACAUAAGAGAUGCAGCUCCUGACUUCUCCUCUGAUCUUCGUGAUCAGAGUUUUGAGUCGUCAGACUACGAGCAGUUUCUCUUAGUCGUUGCAUCGGGUGCUGUUGCCUUAACGAUGUGUAUAUGGGGUUCGGGGGCUGUUGCCAUGAUAUAUAUGGAUGAGACAGAAGUGGCCCCGUUGACGAGUUUAACUUAGAUUAAGUAGGACGCAUGAUCUUGAGCUCUUUUCCUAUACUUUGUCCUAUGGCCAGCUUUCUCCUUAUUACGAAGAGAUUGCGGGAUGUGGGUGCAGAGUGGGAAAAUCUGAGUUCGGUCAUCUUUGUUGUUCGUCCUAC [snR30 nt 1-531 (5' HP + IH)],binding result,"[1]; 1300 nM protein, binding restored, label: 32P-UTP body",binds
GGAACCAUAGUCUCGUGCUAGUUCGGUACUAUACAGGGAAGGGAAGUCACUCGCAUACGUGUGUGUGCAUUUCUUGCUAUUGCUGCUUAGCUUCUCUAAAACACUGGGCUAGCGUUUUUCAACGCUCGAGAGGCAGAGUCUCAAGGAGCCUCCAAUGGGCCUCACGUAUUCAUCUAGAUGGCGCUUCGGACAACGGCAUCACAUAAGAGAUGCAGCUCCUGACUUCUCCUCUGAUCUUCGUGAUCAGAGUUUUGAGUCGUCAGACUACGAGCAGUUUCUCUUAGUCGUUGCAUCGGGUGCUGUUGCCUUAACGAUGUGUAUAUGGGGUUCGGGGGCUGUUGCCAUGAUAUAUAUGGAUGAGACAGAAGUGGCCCCGUUGACGAGUUUAACUUAGAUUAAG [snR30 5' hairpin (nt 1-398)],binding result,"[1]; 1300 nM protein, label: 32P-UTP body",no binding
GGAACCAUAGUCUCGUGCUAGUUCGGUACUAUACAGGGAAGGGAAGUCACUCGCAUACGUGUGUGUGCAUUUCUUGCUAUUGCUGCUUAGCUUCUCUAAAACACUGGGCUAGCGUUUUUCAACGCUCGAGAGGCAGAGUCUCAAGGAGCCUCCAAUGGGCCUCACGUAUUCAUCUAGAUGGCGCUUCGGACAACGGCAUCACAUAAGAGAUGCAGCUCCUGACUUCUCCUCUGAUCUUCGUGAUCAGAGUUUUGAGUCGUCAGACUACGAGCAGUUUCUCUUAGUCGUUGCAUCGGGUGCUGUUGCCUUAACGAUGUGUAUAUGGGGUUCGGGGGCUGUUGCCAUGAUAUAUAUGGAUGAGACAGAAGUGGCCCCGUUGACGAGUUUAACUUAGAUUAAGUAGGACGCAUGAUCUUGAGCUCUUUUCCUAUACUUUGUCCUAUGGCCAGCUUUCUCCUUAUUACGAAGAGAUUGCGGGAUGUGGGUGCAGAGUGGGAAAAUCUGAGUUCGGUCAUCUUUGUUGUUCGUCCUACCGCAGUAUAUUCCUAAACACUAUGAAAUGACCCUAGUUGGUCCAUGAUCAUUUGGGUAAAACCAUACUGCAGACAUCU [snR30 full length (nt 1-606)],binding result,[2],binds more weakly
same,Kd,"[1]; 100-1000 nM protein, label: 32P-UTP body",300 nM
